Measured values: article PMC5410595, “In Vitro and In Silico Antidiabetic and Antimicrobial Evaluation of Constituents from Kickxia ramosissima (Nanorrhinum ramosissimum)” (Frontiers in Pharmacology, 2017)

Tested on: Plasmodium falciparum K1
Experiment: Antimicrobial screening panel: Plasmodium falciparum
Type: cell-based
Conditions: K1, read-out: IC50 Plasmodium falciparum K1
Protocol: Fractions and isolated compounds were evaluated for antimicrobial activity in an integrated screening panel, also including the human MRC-5 cell line to assess selectivity, as reported before ([Cos et al., 2006]; [Mesia et al., 2008]; [Baldé et al., 2010]; [Amin et al., 2016]).

- IC50: 80 nM
SMILES: CCN(CC)CCCC(C)Nc1ccnc2cc(Cl)ccc12 (stereo not shown) [chloroquine, reference compound]
